From paper PMC8765783, “Identification of the potential active site of the septal peptidoglycan polymerase FtsW” (PLoS Genetics, 2022)
Results are given in words; binding and its absence hold for the method and conditions named. In cells and extracts the contact can be indirect. Some entries that bind do so weakly or less than the wild type. Sequences can lack the tags named with a protein.

Target: T1, His-FtsW W138A (E. coli) (UniProt P0ABG4)
T1 sequence: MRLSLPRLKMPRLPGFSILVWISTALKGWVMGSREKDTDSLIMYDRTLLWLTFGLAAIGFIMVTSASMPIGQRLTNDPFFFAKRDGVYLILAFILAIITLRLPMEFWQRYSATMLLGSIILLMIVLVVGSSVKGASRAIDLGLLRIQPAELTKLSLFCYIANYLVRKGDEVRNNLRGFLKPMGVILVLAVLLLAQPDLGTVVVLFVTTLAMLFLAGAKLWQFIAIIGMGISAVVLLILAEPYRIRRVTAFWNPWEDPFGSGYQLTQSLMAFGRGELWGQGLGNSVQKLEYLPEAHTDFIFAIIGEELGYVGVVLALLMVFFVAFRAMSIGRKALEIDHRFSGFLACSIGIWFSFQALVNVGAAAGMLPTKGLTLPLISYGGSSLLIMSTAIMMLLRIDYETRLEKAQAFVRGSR
Test: pull-down; His-tagged protein co-expressed with the untagged partner in E. coli; membranes solubilised in DDM; His-tagged protein held on a HisTrap column (50 mM Tris-HCl pH 7.5, 300 mM NaCl, 10% glycerol, 1 mM DDM, 50 mM imidazole), eluted with an imidazole gradient; SDS-PAGE with Coomassie, Bocillin FL fluorescence or anti-HA blot

B1: FtsI(PBP3), untagged (E. coli) (enzyme, UniProt P0AD68 1-577)
chain: MKAAAKTQKPKRQEEHANFISWRFALLCGCILLALAFLLGRVAWLQVISPDMLVKEGDMRSLRVQQVSTSRGMITDRSGRPLAVSVPVKAIWADPKEVHDAGGISVGDRWKALANALNIPLDQLSARINANPKGRFIYLARQVNPDMADYIKKLKLPGIHLREESRRYYPSGEVTAHLIGFTNVDSQGIEGVEKSFDKWLTGQPGERIVRKDRYGRVIEDISSTDSQAAHNLALSIDERLQALVYRELNNAVAFNKAESGSAVLVDVNTGEVLAMANSPSYNPNNLSGTPKEAMRNRTITDVFEPGSTVKPMVVMTALQRGVVRENSVLNTIPYRINGHEIKDVARYSELTLTGVLQKSSNVGVSKLALAMPSSALVDTYSRFGLGKATNLGLVGERSGLYPQKQRWSDIERATFSFGYGLMVTPLQLARVYATIGSYGIYRPLSITKVDPPVPGERVFPESIVRTVVHMMESVALPGGGGVKAAIKGYRIAIKTGTAKKVGPDGRYINKYIAYTAGVAPASQPRFALVVVINDPQAGKYYGGAVSAPVFGAIMGGVLRTMNIEPDALTTGDKNEFV
With B1 as the binder, how does the binding read?
The binding was “binds”.
